# Values from PubChem BioAssay AID1159597 (NIAID, 2016).
# Test: 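Knock-downs that change TNF-alpha promoter reporter output after LPS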
# Cells: human THP-1 B5 reporter clone (monocytic leukaemia line), PMA-differentiated to macrophage-like cells
# Reagents: single siRNA against human genes
# Duration: LPS for 4 h before read-out; assayed 48 to 72 h after siRNA transfection
# Conditions: LPS (Salmonella minnesota R595) for 4 h; concentration not given
# Read-out: 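After 4 h LPS, firefly TNF promoter luciferase over renilla, as a plate median/MAD robust z-score averaged across replicates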
# Direction: TNF reporter z-score: higher = stronger TNF promoter activity after LPS
# Rule for the call: In these data the active calls have TNF reporter z-score, replicate mean at about -1.5 or lower, or at about 1.53 or higher
# Calls: active = clear shift in reporter, either direction; inactive = little shift in reporter
# The deposit covers 756 reagents; shown is an unselected part. Of all reagents, 140 (19%) are marked active. 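Calls mark clear shifts in either direction, lowered or raised; calls are per siRNA, gene-level medians over six siRNAs not deposited.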 Entries without a mark were called inactive. Not given: the amount of reagent.
target,PubChem SID,"TNF reporter z-score, replicate mean"
UBE2V1 (ubiquitin conjugating enzyme E2 V1),SID303070564,0.0622
UBE2V1 (ubiquitin conjugating enzyme E2 V1),SID303070565,-0.557
UBE2V1 (ubiquitin conjugating enzyme E2 V1),SID303070566,1.23
UBE2V1 (ubiquitin conjugating enzyme E2 V1),SID303070567,-0.0728
UBE2V1 (ubiquitin conjugating enzyme E2 V1),SID303070568,-1.09
UBE2V1 (ubiquitin conjugating enzyme E2 V1),SID303070569,0.0244
MAPK1 (mitogen-activated protein kinase 1),SID303070708,-0.282
MAPK1 (mitogen-activated protein kinase 1),SID303070709,-0.167
MAPK1 (mitogen-activated protein kinase 1),SID303070710,0.503
MAPK1 (mitogen-activated protein kinase 1),SID303070711,1.04
MAPK1 (mitogen-activated protein kinase 1),SID303070712,-0.802
MAPK1 (mitogen-activated protein kinase 1),SID303070713,-0.204
IL1B (interleukin 1 beta),SID303071080,0.123
IL1B (interleukin 1 beta),SID303071081,-1.18
IL1B (interleukin 1 beta),SID303071082,-0.815
IL1B (interleukin 1 beta),SID303071083,-1.36
IL1B (interleukin 1 beta),SID303071084,-1.07
IL1B (interleukin 1 beta),SID303071085,-1.26
ATF2 (activating transcription factor 2),SID303071014,-2.17 (active)
ATF2 (activating transcription factor 2),SID303071015,0.0387
ATF2 (activating transcription factor 2),SID303071016,-0.321
ATF2 (activating transcription factor 2),SID303071017,-0.272
ATF2 (activating transcription factor 2),SID303071018,-0.802
ATF2 (activating transcription factor 2),SID303071019,-1.57 (active)
LY86 (lymphocyte antigen 86),SID303071122,-0.438
LY86 (lymphocyte antigen 86),SID303071123,-1.42
LY86 (lymphocyte antigen 86),SID303071124,-0.551
LY86 (lymphocyte antigen 86),SID303071125,-1.21
LY86 (lymphocyte antigen 86),SID303071126,-0.658
LY86 (lymphocyte antigen 86),SID303071127,-0.193
PIK3R5 (phosphoinositide-3-kinase regulatory subunit 5),SID303070930,-0.189
PIK3R5 (phosphoinositide-3-kinase regulatory subunit 5),SID303070931,-0.544
PIK3R5 (phosphoinositide-3-kinase regulatory subunit 5),SID303070932,0.052
PIK3R5 (phosphoinositide-3-kinase regulatory subunit 5),SID303070933,-0.311
PIK3R5 (phosphoinositide-3-kinase regulatory subunit 5),SID303070934,1.18
PIK3R5 (phosphoinositide-3-kinase regulatory subunit 5),SID303070935,-2.15 (active)
TIRAP (TIR domain containing adaptor protein),SID303070534,-3.69 (active)
TIRAP (TIR domain containing adaptor protein),SID303070535,-3.2 (active)
TIRAP (TIR domain containing adaptor protein),SID303070536,-3.91 (active)
TIRAP (TIR domain containing adaptor protein),SID303070537,-0.52
TIRAP (TIR domain containing adaptor protein),SID303070538,-0.503
TIRAP (TIR domain containing adaptor protein),SID303070539,-2.54 (active)
CREBBP (CREB binding lysine acetyltransferase),SID303071026,1.81 (active)
CREBBP (CREB binding lysine acetyltransferase),SID303071027,0.728
CREBBP (CREB binding lysine acetyltransferase),SID303071028,0.685
CREBBP (CREB binding lysine acetyltransferase),SID303071029,-0.0143
CREBBP (CREB binding lysine acetyltransferase),SID303071030,-0.216
CREBBP (CREB binding lysine acetyltransferase),SID303071031,0.189
ATF7 (activating transcription factor 7),SID303071020,-2.38 (active)
ATF7 (activating transcription factor 7),SID303071021,-0.151
ATF7 (activating transcription factor 7),SID303071022,-1.62 (active)
ATF7 (activating transcription factor 7),SID303071023,-1.05
ATF7 (activating transcription factor 7),SID303071024,-0.356
ATF7 (activating transcription factor 7),SID303071025,0.485
RIPK3 (receptor interacting serine/threonine kinase 3),SID303071188,-0.335
RIPK3 (receptor interacting serine/threonine kinase 3),SID303071189,-0.327
RIPK3 (receptor interacting serine/threonine kinase 3),SID303071190,0.0916
RIPK3 (receptor interacting serine/threonine kinase 3),SID303071191,-0.642
RIPK3 (receptor interacting serine/threonine kinase 3),SID303071192,0.459
RIPK3 (receptor interacting serine/threonine kinase 3),SID303071193,0.28
MAPK8 (mitogen-activated protein kinase 8),SID303070756,-0.249
MAPK8 (mitogen-activated protein kinase 8),SID303070757,-1.1
MAPK8 (mitogen-activated protein kinase 8),SID303070758,0.674
MAPK8 (mitogen-activated protein kinase 8),SID303070759,-0.151
MAPK8 (mitogen-activated protein kinase 8),SID303070760,-1.19
MAPK8 (mitogen-activated protein kinase 8),SID303070761,0.43
TNF (tumor necrosis factor),SID303071092,-0.518
TNF (tumor necrosis factor),SID303071093,-0.585
TNF (tumor necrosis factor),SID303071094,-0.658
TNF (tumor necrosis factor),SID303071095,-0.336
TNF (tumor necrosis factor),SID303071096,-1.01
TNF (tumor necrosis factor),SID303071097,-0.277
TBKBP1 (TBK1 binding protein 1),SID303070852,0.246
TBKBP1 (TBK1 binding protein 1),SID303070853,0.935
TBKBP1 (TBK1 binding protein 1),SID303070854,1.14
TBKBP1 (TBK1 binding protein 1),SID303070855,1.28
TBKBP1 (TBK1 binding protein 1),SID303070856,0.629
TBKBP1 (TBK1 binding protein 1),SID303070857,-0.112
CD14 (CD14 molecule),SID303070504,-0.223
CD14 (CD14 molecule),SID303070505,-1.72 (active)
CD14 (CD14 molecule),SID303070506,-0.131
CD14 (CD14 molecule),SID303070507,-0.677
CD14 (CD14 molecule),SID303070508,0.872
CD14 (CD14 molecule),SID303070509,-3.29 (active)
PIK3CG,SID303070906,-2.3 (active)
PIK3CG,SID303070907,-0.447
PIK3CG,SID303070908,-0.156
PIK3CG,SID303070909,-0.368
PIK3CG,SID303070910,-0.454
PIK3CG,SID303070911,-1.18
IRF7 (interferon regulatory factor 7),SID303070948,-0.644
IRF7 (interferon regulatory factor 7),SID303070949,-1.4
IRF7 (interferon regulatory factor 7),SID303070950,1.03
IRF7 (interferon regulatory factor 7),SID303070951,-0.637
IRF7 (interferon regulatory factor 7),SID303070952,-1.08
IRF7 (interferon regulatory factor 7),SID303070953,0.124
MAP2K2 (mitogen-activated protein kinase kinase 2),SID303070696,-0.225
MAP2K2 (mitogen-activated protein kinase kinase 2),SID303070697,0.749
MAP2K2 (mitogen-activated protein kinase kinase 2),SID303070698,-0.119
MAP2K2 (mitogen-activated protein kinase kinase 2),SID303070699,0.145
MAP2K2 (mitogen-activated protein kinase kinase 2),SID303070700,-0.087
MAP2K2 (mitogen-activated protein kinase kinase 2),SID303070701,0.0219
IKBKB (inhibitor of nuclear factor kappa B kinase subunit beta),SID303070624,0.0815
IKBKB (inhibitor of nuclear factor kappa B kinase subunit beta),SID303070625,0.997
IKBKB (inhibitor of nuclear factor kappa B kinase subunit beta),SID303070626,0.612
IKBKB (inhibitor of nuclear factor kappa B kinase subunit beta),SID303070627,-0.307
IKBKB (inhibitor of nuclear factor kappa B kinase subunit beta),SID303070628,0.523
IKBKB (inhibitor of nuclear factor kappa B kinase subunit beta),SID303070629,0.328
RAC1 (Rac family small GTPase 1),SID303070936,-0.374
RAC1 (Rac family small GTPase 1),SID303070937,0.589
RAC1 (Rac family small GTPase 1),SID303070938,-0.461
RAC1 (Rac family small GTPase 1),SID303070939,-0.327
RAC1 (Rac family small GTPase 1),SID303070940,1.15
RAC1 (Rac family small GTPase 1),SID303070941,-0.841
NFKB1 (nuclear factor kappa B subunit 1),SID303070648,-0.828
NFKB1 (nuclear factor kappa B subunit 1),SID303070649,1.08
NFKB1 (nuclear factor kappa B subunit 1),SID303070650,-0.37
NFKB1 (nuclear factor kappa B subunit 1),SID303070651,-0.82
NFKB1 (nuclear factor kappa B subunit 1),SID303070652,1.32
NFKB1 (nuclear factor kappa B subunit 1),SID303070653,-0.162
CASP8 (caspase 8),SID303070810,-0.498
CASP8 (caspase 8),SID303070811,-0.274
CASP8 (caspase 8),SID303070812,-0.149
CASP8 (caspase 8),SID303070813,-0.322
CASP8 (caspase 8),SID303070814,0.246
CASP8 (caspase 8),SID303070815,-1.39
ELK1 (ETS transcription factor ELK1),SID303070984,-2.44 (active)
ELK1 (ETS transcription factor ELK1),SID303070985,-1.96 (active)
ELK1 (ETS transcription factor ELK1),SID303070986,-1.3
ELK1 (ETS transcription factor ELK1),SID303070987,-0.419
ELK1 (ETS transcription factor ELK1),SID303070988,0.192
ELK1 (ETS transcription factor ELK1),SID303070989,-0.337
AKT1 (AKT serine/threonine kinase 1),SID303070870,0.287
AKT1 (AKT serine/threonine kinase 1),SID303070871,-0.684
AKT1 (AKT serine/threonine kinase 1),SID303070872,-1.14
AKT1 (AKT serine/threonine kinase 1),SID303070873,-0.931
AKT1 (AKT serine/threonine kinase 1),SID303070874,0.141
AKT1 (AKT serine/threonine kinase 1),SID303070875,-0.868
MAPK12 (mitogen-activated protein kinase 12),SID303070774,-0.268
MAPK12 (mitogen-activated protein kinase 12),SID303070775,-0.0888
MAPK12 (mitogen-activated protein kinase 12),SID303070776,-0.123
MAPK12 (mitogen-activated protein kinase 12),SID303070777,-0.268
MAPK12 (mitogen-activated protein kinase 12),SID303070778,0.614
MAPK12 (mitogen-activated protein kinase 12),SID303070779,-1.7 (active)

Reformatted: entries from further up
{"target": "TIRAP (TIR domain containing adaptor protein)", "PubChem SID": "SID303070538", "TNF reporter z-score, replicate mean": -0.503}
{"target": "TIRAP (TIR domain containing adaptor protein)", "PubChem SID": "SID303070539", "TNF reporter z-score, replicate mean": "-2.54 (active)"}
{"target": "CREBBP (CREB binding lysine acetyltransferase)", "PubChem SID": "SID303071026", "TNF reporter z-score, replicate mean": "1.81 (active)"}
{"target": "CREBBP (CREB binding lysine acetyltransferase)", "PubChem SID": "SID303071027", "TNF reporter z-score, replicate mean": 0.728}
{"target": "CREBBP (CREB binding lysine acetyltransferase)", "PubChem SID": "SID303071028", "TNF reporter z-score, replicate mean": 0.685}
{"target": "CREBBP (CREB binding lysine acetyltransferase)", "PubChem SID": "SID303071029", "TNF reporter z-score, replicate mean": -0.0143}
{"target": "CREBBP (CREB binding lysine acetyltransferase)", "PubChem SID": "SID303071030", "TNF reporter z-score, replicate mean": -0.216}
